{"source": "PubChem BioAssay AID686937, Drosophila RNAi Screening Center – 2013", "aim": "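Knock-downs that reduce output of a secreted reporter enzyme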 (primary screen)", "cell system": "Drosophila S2 cells expressing secreted horseradish peroxidase", "reagents": "long dsRNA against Drosophila genes", "duration": "about 5.5 days (5 days dsRNA, then 12 h reporter induction)", "treatment": "reporter expression induced after 5 days of dsRNA, read 12 h later; inducer not stated", "measurement": "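Chemiluminescent measurement of peroxidase in the medium 12 h after reporter induction, following 5 days of dsRNA, given as a z-score per plate; higher means more secretion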", "scale": "z-score: higher = more reporter secreted into medium", "note": "The screen tested about 23,000 reagents; this is a random part of those that have a named target and a result. 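Reduced-secretion tags in replicate 1 do not always agree with the z-scores; no criterion for assigning the tags was given.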 A plus sign joins genes that one reagent is predicted to hit. Not all columns of the deposit are shown. The record does not give: the amount of reagent."}
{"gene knocked down":"CG13010","dsRNA":"DRSC19529","z-score, replicate 1":-0.16}
{"gene knocked down":"CG11825","dsRNA":"DRSC06090","z-score, replicate 1":0.18}
{"gene knocked down":"CG17104","dsRNA":"DRSC02573","z-score, replicate 1":0.28}
{"gene knocked down":"CG11929","dsRNA":"DRSC00339","z-score, replicate 1":0.48}
{"gene knocked down":"Obp22a","dsRNA":"DRSC00088","z-score, replicate 1":0.47}
{"gene knocked down":"Ppi1","dsRNA":"DRSC15421","z-score, replicate 1":0.24}
{"gene knocked down":"Gcat","dsRNA":"DRSC09719","z-score, replicate 1":0.7}
{"gene knocked down":"CG9632","dsRNA":"DRSC16528","z-score, replicate 1":-0.13}
{"gene knocked down":"Taf5","dsRNA":"DRSC07562","z-score, replicate 1":0.09}
{"gene knocked down":"CG7367","dsRNA":"DRSC03049","z-score, replicate 1":0.56}
{"gene knocked down":"CG5984","dsRNA":"DRSC15930","z-score, replicate 1":0.12}
{"gene knocked down":"Rab5","dsRNA":"DRSC00777","z-score, replicate 1":0.16}
{"gene knocked down":"CG14589","dsRNA":"DRSC04866","z-score, replicate 1":0.04}
{"gene knocked down":"CG6833","dsRNA":"DRSC10721","z-score, replicate 1":0.34}
{"gene knocked down":"t-cup","dsRNA":"DRSC01254","z-score, replicate 1":0.15}
{"gene knocked down":"Sec16","dsRNA":"DRSC19788","z-score, replicate 1":-4.89}
{"gene knocked down":"Sec16","dsRNA":"DRSC19858","z-score, replicate 1":0.45}
{"gene knocked down":"dmrt93B","dsRNA":"DRSC15865","z-score, replicate 1":0.32}
{"gene knocked down":"lectin-46Cb","dsRNA":"DRSC06611","z-score, replicate 1":0.18}
{"gene knocked down":"Mi-2 + Su(Tpl)","dsRNA":"DRSC09640","z-score, replicate 1":0.6}
{"gene knocked down":"Sytalpha","dsRNA":"DRSC02869","z-score, replicate 1":0}
{"gene knocked down":"Twdlalpha","dsRNA":"DRSC19914","z-score, replicate 1":0.3}
{"gene knocked down":"CG42375 + CG9288","dsRNA":"DRSC16468","z-score, replicate 1":0.32}
{"gene knocked down":"CG9568","dsRNA":"DRSC03265","z-score, replicate 1":-0.3}
{"gene knocked down":"CG8064","dsRNA":"DRSC16373","z-score, replicate 1":0.41}
{"gene knocked down":"CG4594","dsRNA":"DRSC02762","z-score, replicate 1":0.06}
{"gene knocked down":"Ero1L","dsRNA":"DRSC08660","z-score, replicate 1":-0.12}
{"gene knocked down":"CG31296","dsRNA":"DRSC13092","z-score, replicate 1":0.18}
{"gene knocked down":"Osi10b","dsRNA":"DRSC12279","z-score, replicate 1":0.55}
{"gene knocked down":"ldd","dsRNA":"DRSC20558","z-score, replicate 1":0.44}
{"gene knocked down":"ldd","dsRNA":"DRSC22696","z-score, replicate 1":-0.92}
{"gene knocked down":"CG12057","dsRNA":"DRSC17797","z-score, replicate 1":0.44}
{"gene knocked down":"CG34375","dsRNA":"DRSC14684","z-score, replicate 1":0.28}
{"gene knocked down":"CG34375","dsRNA":"DRSC14685","z-score, replicate 1":0.36}
{"gene knocked down":"p38b","dsRNA":"DRSC03586","z-score, replicate 1":-0.08}
{"gene knocked down":"fipi","dsRNA":"DRSC00465","z-score, replicate 1":-0.39}
{"gene knocked down":"CG14613","dsRNA":"DRSC20625","z-score, replicate 1":0.35}
{"gene knocked down":"exex","dsRNA":"DRSC10972","z-score, replicate 1":0.2}
{"gene knocked down":"CG10907","dsRNA":"DRSC09804","z-score, replicate 1":0.18}
{"gene knocked down":"Mlc-c","dsRNA":"DRSC18683","z-score, replicate 1":0.39}
